Assay results from the supplement of paper PMC11006884.
The entries are a selection whose mix differs from that of the whole data set.

Sequences of proteins named here, by UniProt entry; tags and fusion partners are left off. A change or cut given only in a name is not applied to a line headed by its entry.
UniProt P17858: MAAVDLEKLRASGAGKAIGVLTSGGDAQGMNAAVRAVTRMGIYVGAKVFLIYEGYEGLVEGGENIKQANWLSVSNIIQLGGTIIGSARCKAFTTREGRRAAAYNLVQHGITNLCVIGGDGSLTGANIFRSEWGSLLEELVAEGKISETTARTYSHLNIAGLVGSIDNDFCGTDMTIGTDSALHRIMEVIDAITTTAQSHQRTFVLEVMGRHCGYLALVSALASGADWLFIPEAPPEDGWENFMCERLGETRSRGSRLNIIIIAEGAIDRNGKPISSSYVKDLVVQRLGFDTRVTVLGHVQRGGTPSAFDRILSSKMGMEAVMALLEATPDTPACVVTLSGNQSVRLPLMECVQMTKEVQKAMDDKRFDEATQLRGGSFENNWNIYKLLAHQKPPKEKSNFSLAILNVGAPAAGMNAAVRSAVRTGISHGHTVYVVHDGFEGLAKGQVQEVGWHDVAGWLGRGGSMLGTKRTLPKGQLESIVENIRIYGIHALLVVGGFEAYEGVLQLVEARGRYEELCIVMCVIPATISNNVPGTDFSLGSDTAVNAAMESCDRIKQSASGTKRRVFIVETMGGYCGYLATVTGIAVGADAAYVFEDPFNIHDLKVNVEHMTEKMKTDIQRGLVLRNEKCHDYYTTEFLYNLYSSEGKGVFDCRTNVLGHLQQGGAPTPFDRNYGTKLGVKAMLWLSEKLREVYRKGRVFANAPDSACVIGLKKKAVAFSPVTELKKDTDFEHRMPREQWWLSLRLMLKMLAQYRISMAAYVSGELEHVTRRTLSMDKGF
UniProt P22695: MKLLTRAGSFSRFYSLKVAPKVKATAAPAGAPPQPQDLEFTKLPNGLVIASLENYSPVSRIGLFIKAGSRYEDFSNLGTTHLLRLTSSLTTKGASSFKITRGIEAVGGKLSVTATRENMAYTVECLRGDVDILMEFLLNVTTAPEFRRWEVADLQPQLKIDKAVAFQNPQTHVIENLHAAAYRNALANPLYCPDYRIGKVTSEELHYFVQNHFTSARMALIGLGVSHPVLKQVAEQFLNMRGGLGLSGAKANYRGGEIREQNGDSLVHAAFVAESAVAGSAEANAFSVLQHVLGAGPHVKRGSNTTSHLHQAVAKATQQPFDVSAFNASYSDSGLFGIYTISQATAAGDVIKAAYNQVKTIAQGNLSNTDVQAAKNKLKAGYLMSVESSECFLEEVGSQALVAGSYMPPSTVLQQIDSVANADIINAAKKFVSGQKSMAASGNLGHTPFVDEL
UniProt P28482, whole entry, looked up: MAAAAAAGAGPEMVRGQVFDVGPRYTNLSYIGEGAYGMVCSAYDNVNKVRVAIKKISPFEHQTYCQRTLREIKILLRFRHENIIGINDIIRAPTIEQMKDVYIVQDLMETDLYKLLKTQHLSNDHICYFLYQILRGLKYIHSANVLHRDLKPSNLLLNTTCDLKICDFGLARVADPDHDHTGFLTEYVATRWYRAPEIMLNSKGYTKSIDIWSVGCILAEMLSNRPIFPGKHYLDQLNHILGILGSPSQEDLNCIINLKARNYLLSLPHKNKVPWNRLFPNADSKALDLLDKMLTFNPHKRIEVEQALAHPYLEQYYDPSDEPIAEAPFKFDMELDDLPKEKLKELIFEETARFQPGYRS
UniProt P30041: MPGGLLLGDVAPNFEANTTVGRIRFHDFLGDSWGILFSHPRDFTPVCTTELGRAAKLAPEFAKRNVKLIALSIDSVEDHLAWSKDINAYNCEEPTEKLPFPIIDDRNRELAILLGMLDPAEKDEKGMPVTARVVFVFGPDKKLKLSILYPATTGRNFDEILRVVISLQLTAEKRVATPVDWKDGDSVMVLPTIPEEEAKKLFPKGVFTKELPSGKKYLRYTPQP
UniProt P25685, whole entry, looked up: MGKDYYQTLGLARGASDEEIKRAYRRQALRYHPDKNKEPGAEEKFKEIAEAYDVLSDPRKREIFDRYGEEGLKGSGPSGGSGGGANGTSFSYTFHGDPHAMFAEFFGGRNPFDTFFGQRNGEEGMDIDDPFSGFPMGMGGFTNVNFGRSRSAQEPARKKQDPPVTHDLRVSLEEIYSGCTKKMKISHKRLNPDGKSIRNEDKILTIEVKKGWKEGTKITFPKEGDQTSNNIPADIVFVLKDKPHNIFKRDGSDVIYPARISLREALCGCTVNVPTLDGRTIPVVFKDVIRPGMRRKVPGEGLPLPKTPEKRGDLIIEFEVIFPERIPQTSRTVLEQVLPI
UniProt P22102: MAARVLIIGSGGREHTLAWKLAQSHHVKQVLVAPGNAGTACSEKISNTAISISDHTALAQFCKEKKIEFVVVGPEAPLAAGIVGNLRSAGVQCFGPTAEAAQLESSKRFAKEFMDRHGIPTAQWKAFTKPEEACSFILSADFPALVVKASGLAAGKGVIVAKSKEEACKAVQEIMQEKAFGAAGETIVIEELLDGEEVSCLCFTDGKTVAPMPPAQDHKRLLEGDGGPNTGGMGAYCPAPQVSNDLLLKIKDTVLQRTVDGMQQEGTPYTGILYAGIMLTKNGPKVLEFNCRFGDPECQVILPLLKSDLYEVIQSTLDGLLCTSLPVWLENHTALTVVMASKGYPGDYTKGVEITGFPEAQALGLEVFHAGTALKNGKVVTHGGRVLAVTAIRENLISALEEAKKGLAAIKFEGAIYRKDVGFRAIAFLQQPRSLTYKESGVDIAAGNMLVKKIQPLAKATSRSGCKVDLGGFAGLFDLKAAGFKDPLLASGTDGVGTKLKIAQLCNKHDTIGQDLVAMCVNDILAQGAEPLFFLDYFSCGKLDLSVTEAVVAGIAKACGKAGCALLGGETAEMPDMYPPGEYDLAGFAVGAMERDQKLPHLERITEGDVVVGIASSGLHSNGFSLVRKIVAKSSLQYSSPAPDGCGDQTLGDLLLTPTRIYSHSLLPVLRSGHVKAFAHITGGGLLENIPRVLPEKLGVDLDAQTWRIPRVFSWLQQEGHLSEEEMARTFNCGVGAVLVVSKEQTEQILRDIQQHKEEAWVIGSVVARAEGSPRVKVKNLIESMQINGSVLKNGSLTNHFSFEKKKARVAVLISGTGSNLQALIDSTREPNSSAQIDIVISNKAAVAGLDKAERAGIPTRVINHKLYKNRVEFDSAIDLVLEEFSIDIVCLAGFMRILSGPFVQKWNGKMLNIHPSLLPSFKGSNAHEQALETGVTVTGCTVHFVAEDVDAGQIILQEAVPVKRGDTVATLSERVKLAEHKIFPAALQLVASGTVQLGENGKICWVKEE
UniProt P22087: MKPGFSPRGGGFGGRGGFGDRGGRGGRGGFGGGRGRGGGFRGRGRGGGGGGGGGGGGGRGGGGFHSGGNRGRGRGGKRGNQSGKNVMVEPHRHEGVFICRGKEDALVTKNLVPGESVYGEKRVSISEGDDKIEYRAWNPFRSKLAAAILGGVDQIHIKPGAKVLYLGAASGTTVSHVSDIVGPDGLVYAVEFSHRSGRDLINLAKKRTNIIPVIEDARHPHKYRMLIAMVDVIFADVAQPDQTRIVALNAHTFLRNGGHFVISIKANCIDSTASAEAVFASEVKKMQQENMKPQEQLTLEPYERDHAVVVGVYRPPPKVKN
UniProt P26641, whole entry, looked up: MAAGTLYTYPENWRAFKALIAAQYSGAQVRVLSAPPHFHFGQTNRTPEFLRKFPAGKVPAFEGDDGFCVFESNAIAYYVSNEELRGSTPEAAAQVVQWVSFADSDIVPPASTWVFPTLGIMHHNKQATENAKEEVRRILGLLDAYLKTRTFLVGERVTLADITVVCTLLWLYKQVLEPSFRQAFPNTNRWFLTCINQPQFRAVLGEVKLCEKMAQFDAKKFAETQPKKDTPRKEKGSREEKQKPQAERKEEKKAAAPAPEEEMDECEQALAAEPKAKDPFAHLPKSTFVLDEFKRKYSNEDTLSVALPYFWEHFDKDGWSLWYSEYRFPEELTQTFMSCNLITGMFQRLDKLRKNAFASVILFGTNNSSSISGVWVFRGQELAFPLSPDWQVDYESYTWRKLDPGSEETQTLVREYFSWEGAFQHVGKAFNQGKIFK
UniProt P29401: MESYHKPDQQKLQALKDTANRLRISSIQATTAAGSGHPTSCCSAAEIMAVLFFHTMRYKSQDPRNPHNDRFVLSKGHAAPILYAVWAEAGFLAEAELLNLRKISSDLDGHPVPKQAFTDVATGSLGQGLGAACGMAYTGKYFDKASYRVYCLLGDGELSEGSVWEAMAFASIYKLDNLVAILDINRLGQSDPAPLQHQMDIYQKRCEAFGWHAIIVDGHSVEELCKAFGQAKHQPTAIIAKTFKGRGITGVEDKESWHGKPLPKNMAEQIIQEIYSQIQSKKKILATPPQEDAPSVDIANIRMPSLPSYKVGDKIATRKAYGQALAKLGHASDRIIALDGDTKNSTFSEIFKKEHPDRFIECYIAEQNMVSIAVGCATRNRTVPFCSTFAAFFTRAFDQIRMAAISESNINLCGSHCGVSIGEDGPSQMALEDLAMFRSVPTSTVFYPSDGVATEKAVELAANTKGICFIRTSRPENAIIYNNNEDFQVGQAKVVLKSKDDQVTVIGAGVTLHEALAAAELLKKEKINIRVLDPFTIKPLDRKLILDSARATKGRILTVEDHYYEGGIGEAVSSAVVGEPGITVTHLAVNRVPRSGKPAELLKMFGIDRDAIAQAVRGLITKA
UniProt P21912: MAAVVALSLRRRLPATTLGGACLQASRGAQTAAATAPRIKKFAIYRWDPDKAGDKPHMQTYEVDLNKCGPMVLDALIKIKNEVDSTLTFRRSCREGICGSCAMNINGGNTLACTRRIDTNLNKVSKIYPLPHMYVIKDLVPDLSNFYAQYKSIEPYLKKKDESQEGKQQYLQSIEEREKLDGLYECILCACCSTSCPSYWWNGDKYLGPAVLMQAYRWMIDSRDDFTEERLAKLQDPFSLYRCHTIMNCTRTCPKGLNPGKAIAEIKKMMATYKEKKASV
UniProt P29144: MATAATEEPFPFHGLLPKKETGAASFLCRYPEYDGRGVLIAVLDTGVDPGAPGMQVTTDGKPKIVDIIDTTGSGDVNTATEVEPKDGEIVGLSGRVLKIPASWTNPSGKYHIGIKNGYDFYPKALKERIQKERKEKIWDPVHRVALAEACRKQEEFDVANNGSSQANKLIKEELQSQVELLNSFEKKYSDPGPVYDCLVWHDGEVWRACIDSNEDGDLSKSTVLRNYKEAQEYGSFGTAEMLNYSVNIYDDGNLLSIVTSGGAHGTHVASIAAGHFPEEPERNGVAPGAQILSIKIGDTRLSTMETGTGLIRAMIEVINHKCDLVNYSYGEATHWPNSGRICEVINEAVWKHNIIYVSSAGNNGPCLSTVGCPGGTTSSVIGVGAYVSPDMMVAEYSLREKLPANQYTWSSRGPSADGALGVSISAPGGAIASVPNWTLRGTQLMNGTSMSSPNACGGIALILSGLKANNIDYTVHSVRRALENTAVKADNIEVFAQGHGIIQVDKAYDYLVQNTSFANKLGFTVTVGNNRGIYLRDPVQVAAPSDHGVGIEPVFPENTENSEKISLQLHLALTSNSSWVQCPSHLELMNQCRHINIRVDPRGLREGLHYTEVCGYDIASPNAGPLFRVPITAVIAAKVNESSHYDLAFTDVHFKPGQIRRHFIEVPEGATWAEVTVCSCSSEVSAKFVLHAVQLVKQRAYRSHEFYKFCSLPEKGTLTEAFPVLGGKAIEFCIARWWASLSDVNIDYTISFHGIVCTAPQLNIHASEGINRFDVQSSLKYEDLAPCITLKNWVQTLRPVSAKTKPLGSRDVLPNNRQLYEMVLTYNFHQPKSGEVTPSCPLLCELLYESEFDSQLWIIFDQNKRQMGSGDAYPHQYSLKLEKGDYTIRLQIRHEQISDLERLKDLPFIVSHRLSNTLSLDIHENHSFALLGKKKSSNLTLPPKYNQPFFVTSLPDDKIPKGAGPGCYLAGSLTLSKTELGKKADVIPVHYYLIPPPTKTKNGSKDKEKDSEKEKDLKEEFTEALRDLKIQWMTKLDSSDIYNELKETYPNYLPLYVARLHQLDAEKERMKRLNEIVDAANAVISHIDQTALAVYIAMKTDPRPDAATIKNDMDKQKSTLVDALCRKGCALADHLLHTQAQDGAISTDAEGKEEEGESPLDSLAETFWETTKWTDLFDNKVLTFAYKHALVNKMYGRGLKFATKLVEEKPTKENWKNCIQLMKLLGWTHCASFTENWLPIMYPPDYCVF
UniProt P22234: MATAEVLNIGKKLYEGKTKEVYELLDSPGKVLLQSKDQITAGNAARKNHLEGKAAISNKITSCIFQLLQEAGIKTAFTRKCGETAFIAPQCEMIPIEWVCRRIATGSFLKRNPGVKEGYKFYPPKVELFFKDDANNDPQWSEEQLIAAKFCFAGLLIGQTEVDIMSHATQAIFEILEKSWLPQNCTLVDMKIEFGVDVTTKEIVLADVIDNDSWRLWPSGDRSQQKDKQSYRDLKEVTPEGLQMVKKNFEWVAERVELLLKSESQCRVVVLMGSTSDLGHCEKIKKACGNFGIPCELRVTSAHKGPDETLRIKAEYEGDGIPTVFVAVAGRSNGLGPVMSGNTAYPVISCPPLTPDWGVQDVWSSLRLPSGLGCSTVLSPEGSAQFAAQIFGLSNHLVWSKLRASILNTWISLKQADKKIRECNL

Compound: COC(=O)C#Cc1ccccc1 [methyl 3-phenylpropiolate]
Test: log2 ratio of iodoacetamide-alkyne labeling of the cysteine site, DMSO over compound (competition); higher = stronger covalent engagement of the cysteine by the compound, active = 1 or more
Details: 500 µM; treatment time 1 h; system: HEK293T cell lysate
Summary of the method: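 For each cysteine, the log2 competition ratio is mean control-channel reporter intensity over mean compound-channel reporter intensity. HEK293T lysate (2 mg/mL) was exposed to vehicle or electrophile (500 µM, 1 h, ambient temperature), labelled with iodoacetamide alkyne (1 h), clicked to sCIP-TMT reagents, digested overnight with trypsin at 37 °C, streptavidin-enriched and analysed by Orbitrap Eclipse LC-MS/MS with FAIMS and FragPipe. Cysteines quantified in only one of three replicates, each with duplicate channels, were excluded.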

Row | Target | log2 ratio of iodoacetamide-alkyne labeling
1 | RPL12 C17 (UniProt P30050) | inactive: 0.0444
2 | PFKL C351 (UniProt P17858) | inactive: 0.381
3 | SON C2070 (UniProt P18583) | inactive: 0.322
4 | UQCRC2 C192 (UniProt P22695) | inactive: 0.435
5 | RPL17 C57 (UniProt P18621) | inactive: 0.53
6 | UniProt P28482_C166 | inactive: 0.126
7 | PRDX6 C91 (UniProt P30041) | inactive: 0.183
8 | CAST C408 (UniProt P20810) | active: 1.01
9 | DNAJB1 C179 (UniProt P25685) | inactive: 0.262
10 | GART C168 (UniProt P22102) | inactive: 0.475
11 | FBL C99 (UniProt P22087) | inactive: 0.566
12 | EEF1G C68 (UniProt P26641) | inactive: 0.211
13 | TKT C41 (UniProt P29401) | inactive: 0.0725
14 | GART C466 (UniProt P22102) | inactive: 0.199
15 | PFKL C708 (UniProt P17858) | inactive: 0.221
16 | EEF1G C266 (UniProt P26641) | inactive: 0.0542
17 | SDHB C68 (UniProt P21912) | inactive: -0.0527
18 | TPP2 C967 (UniProt P29144) | inactive: 0.00692
19 | TCEA1 C271 (UniProt P23193) | inactive: -0.116
20 | PAICS C374 (UniProt P22234) | inactive: -0.119
21 | ATP6V1B2 C207 (UniProt P21281) | inactive: 0.425
22 | VARS C917 (UniProt P26640) | inactive: 0.429

Random excerpt: 2 entries already listed, in no set order.
Row | Target | log2 ratio of iodoacetamide-alkyne labeling
10 | GART C168 (UniProt P22102) | inactive: 0.475
22 | VARS C917 (UniProt P26640) | inactive: 0.429
